Patent US8361734B2, “Xanthurenic acid derivative pharmaceutical compositions and methods related thereto” (Naturon, Inc., priority 2004, dated 2013)

Key:
Format in all cases: in vivo
[1] = system: normal Sprague Dawley rat; assay: Natriuretic response (Na+ and K+ urine excretion) after i.v. administration in a normal Sprague Dawley rat; conditions: furosemide only, FIG. 25 (0.5 mg i.v.)
Description: A female Sprague Dawley rat (250 g) was anesthetized lightly with ether and a tail vein catheter was placed using PE10 tubing. Additionally, a urethra catheter was inserted using KY jelly and 2% lidocaine as a lubricant. The rat was restrained in a modified Plexiglas tube so that urine could be collected in 1.5-mL microcentrifuge tubes. Saline infusion started at time zero at 0.02 mL/min for the duration of the assay. The same i.v. catheter was used to inject the test compound. Synthetic xanthurenic acid 8-O-β-D-glucoside, 2 μg, was injected at the time indicated in a 1-mL volume in saline over the course of 10 minutes. The tubes were centrifuged at 14,000 rpm to separate any RBC's from the urine. Na^+ and K^+ concentrations in the urine were measured with respective ion selective electrodes. The Na^+ and K^+ excretion rates were calculated by: (vol of urine/time of collection period)×(ion urine concentration). […] Given an extracellular volume of 50 mL in a 250-g rat, the concentration of the test compound was […], a possible minimum dose.
A female Sprague Dawley rat (250 g) was anesthetized lightly with ether and a tail vein catheter was placed using PE10 tubing. […] Na^+ and K^+ concentrations in the urine were measured with respective ion selective electrodes. The Na^+ and K^+ excretion rates were calculated by: (vol of urine/time of collection period)×(ion urine concentration).

[2] = system: uremic Sprague Dawley rat; assay: Natriuretic response (Na+ and K+ urine excretion) after i.v. administration in a uremic Sprague Dawley rat; conditions: furosemide 20 ug i.v., 2 hours after isolated glucoside 3 μg i.v.
Source text: Female Sprague-Dawley rat, weighing 225 g, was made uremic by tying off one kidney and 30-50% of the second kidney. Two weeks later the rat was ready to test for natriuretic activity. The rat was anesthetized lightly with ether and a tail vein catheter was placed using PE10 tubing. Additionally, a urethra catheter was inserted using KY jelly and 2% lidocaine as a lubricant. The rat was restrained in a modified Plexiglas tube so that urine could be collected in 1.5-mL microcentrifuge tubes. Saline infusion started at time zero at 0.02 mL/min for the length of the assay. The same i.v. catheter was used to inject isolated xanthurenic acid 8-O-β-glucoside at the time indicated in a 1-mL volume in saline over the course of 10 minutes. […] Na^+ and K^+ concentrations in the urine were measured with respective ion selective electrodes. The Na^+ and K^+ excretion rates were calculated by: (vol of urine/time of collection period)×(ion urine concentration).
A female Sprague-Dawley rat, weighing 225 g, was made uremic by tying off one kidney and 30-50% of the second kidney. Two weeks later the rat was ready to test for natriuretic activity. […] Na^+ and K^+ concentrations in the urine were measured with respective ion selective electrodes. The Na^+ and K^+ excretion rates were calculated by: (vol of urine/time of collection period)×(ion urine concentration).

[3] = system: normal Sprague Dawley rat; assay: Natriuretic response (Na+ and K+ urine excretion) after oral administration in a normal Sprague Dawley rat
Description: A female Sprague Dawley rat (250 g) was anesthetized lightly with ether and a urethra catheter was inserted using KY jelly and 2% lidocaine as a lubricant. The rat was restrained in a modified Plexiglas tube so that urine could be collected in 1.5-mL microcentrifuge tubes. No saline infusion was administered. Synthetic xanthurenic acid 8-O-β-D-glucoside was injected with a feeding needle at the time indicated in a 1-mL volume of water over the course of 1 minute. […] The tubes were centrifuged at 14,000 rpm to separate any RBC's from the urine. Na^+ and K^+ concentrations in the urine were measured with respective ion selective electrodes. The Na^+ and K^+ excretion rates were calculated by: (vol of urine/time of collection period)×(ion urine concentration).
A female Sprague Dawley rat (250 g) was anesthetized lightly with ether and a urethra catheter was inserted using KY jelly and 2% lidocaine as a lubricant. The rat was restrained in a modified Plexiglas tube so that urine could be collected in 1.5-mL microcentrifuge tubes. No saline infusion was administered. […] Na^+ and K^+ concentrations in the urine were measured with respective ion selective electrodes. The Na^+ and K^+ excretion rates were calculated by: (vol of urine/time of collection period)×(ion urine concentration).

With `NS(=O)(=O)c1cc(C(=O)O)c(NCc2ccco2)cc1Cl` [furosemide, reference compound] the “K+ excretion” value [1] was “causes K^+ excretion”, the “diuretic response (time course and Na+ excretion)” value [2] was “classic” and the “Na+ excretion” value ([3]; furosemide 100 μg oral, sixty minutes after glucoside 10 μg oral, FIGS. 9-11) was “caused sustained Na^+ excretion”. For the same compound, the “Na+ and K+ excretion” value ([3]; oral furosemide alone (data not shown)) was “caused both Na^+ and K^+ excretion”.
